# At least one compound was matched to its structure with a doubt left.
# Test system: CML CD34+ cells
# Experiment: Apoptosis and CFU-GM of CML CD34+ cells on fibronectin or stromal cell layer with dasatinib
# Conditions: 50 nM dasatinib
compound,measurement,setting,value
Cc1nc(Nc2ncc(C(=O)Nc3c(C)cccc3Cl)s2)cc(N2CCN(CCO)CC2)n1 [dasatinib],"apoptosis, fibronectin-adherent versus non-adherent fractions",,no differences were detected
same,CFU-GM activity,"cells cultured on a stromal cell layer, 96 hours",almost complete protection of CFU-GM activity

# From US20120270744A1, “METHODS TO DETERMINE IF A SUBJECT WILL RESPOND TO A BCR-ABL INHIBITOR” (Oregon Health & Science University, priority 2007, published 2012)
